This passage reports binding results from patent US20250304681A1.

Results are given in words; binding and its absence hold for the method and conditions named. Some binding calls cover weakened binding; strength is not graded here.

The target of the assay is RAGE(1-404)-3xflag-eBFP (plasmid p605) on HepG2 cells. Description: flow cytometry, FITC-labelled EVs on fixed p605-HepG2 cells, 10,000-30,000 particles/cell. A general note: In flow cytometry, cells or beads pass a laser one at a time.

Consider A90-Fc EV (from UniProt P0DOX7 1-214), for which the binding entry is on record as “binds”.
